According to the supplement of paper PMC12823440, “Inhibitors supercharge kinase turnover through native proteolytic circuits” (Nature, 2025):
Structures can show the parent of a compound that is named as a salt. Some of the results follow. The calls rarely recur for the same compound in another form.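 Kinases, fused to nanoluciferase, were expressed in K562 cells; luminescence was measured every 4 h from 2 to 18 h as percent of control (DMSO = 100%, positive control = 0%). A time point is decreased if signal falls significantly (2 sigma). Hits were called by the authors by a rule that is not shown; the count of time points alone does not decide it.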

The chains behind the UniProt entries cited, without tags or fusion partners. Where a name states a change or a piece, a line headed by the entry shows the natural chain unless it says otherwise.
UniProt P07947, whole entry, looked up: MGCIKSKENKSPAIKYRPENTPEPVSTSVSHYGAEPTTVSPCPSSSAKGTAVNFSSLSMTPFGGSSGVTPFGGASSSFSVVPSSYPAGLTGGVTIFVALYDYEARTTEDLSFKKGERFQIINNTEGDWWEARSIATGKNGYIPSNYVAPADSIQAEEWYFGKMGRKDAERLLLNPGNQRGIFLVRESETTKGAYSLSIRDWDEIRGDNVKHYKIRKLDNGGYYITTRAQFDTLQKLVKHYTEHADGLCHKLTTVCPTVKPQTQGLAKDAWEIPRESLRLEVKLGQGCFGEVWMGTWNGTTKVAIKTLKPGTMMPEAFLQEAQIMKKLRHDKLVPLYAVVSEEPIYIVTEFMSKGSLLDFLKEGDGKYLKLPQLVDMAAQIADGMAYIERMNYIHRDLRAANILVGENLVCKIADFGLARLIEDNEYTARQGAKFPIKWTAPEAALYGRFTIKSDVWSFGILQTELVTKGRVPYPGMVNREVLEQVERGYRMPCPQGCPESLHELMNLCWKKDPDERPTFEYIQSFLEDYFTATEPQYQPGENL
UniProt P43403: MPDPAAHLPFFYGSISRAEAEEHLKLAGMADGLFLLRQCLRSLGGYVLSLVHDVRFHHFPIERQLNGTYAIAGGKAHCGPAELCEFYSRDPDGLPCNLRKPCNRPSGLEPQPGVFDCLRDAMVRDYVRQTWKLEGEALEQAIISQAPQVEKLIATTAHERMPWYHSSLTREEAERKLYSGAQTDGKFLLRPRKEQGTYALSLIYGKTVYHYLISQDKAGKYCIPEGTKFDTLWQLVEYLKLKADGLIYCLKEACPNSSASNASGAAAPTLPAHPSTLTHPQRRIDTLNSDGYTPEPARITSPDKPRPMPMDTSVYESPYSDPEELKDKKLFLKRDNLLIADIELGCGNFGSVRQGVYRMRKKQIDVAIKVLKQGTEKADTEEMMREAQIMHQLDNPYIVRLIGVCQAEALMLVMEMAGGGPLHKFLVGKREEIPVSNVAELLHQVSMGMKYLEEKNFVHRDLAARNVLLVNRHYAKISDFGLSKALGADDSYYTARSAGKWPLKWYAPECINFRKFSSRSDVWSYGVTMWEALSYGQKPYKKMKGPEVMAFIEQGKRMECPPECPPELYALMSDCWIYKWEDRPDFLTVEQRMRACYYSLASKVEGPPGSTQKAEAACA
UniProt P11802: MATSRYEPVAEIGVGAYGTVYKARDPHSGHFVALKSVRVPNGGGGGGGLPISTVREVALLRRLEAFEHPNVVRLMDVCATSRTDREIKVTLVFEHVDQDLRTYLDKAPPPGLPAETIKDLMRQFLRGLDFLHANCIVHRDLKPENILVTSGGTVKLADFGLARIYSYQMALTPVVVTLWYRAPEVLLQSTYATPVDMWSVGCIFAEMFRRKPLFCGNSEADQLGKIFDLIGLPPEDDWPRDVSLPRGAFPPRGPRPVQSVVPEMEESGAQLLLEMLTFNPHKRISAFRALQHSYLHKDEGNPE
UniProt P50613: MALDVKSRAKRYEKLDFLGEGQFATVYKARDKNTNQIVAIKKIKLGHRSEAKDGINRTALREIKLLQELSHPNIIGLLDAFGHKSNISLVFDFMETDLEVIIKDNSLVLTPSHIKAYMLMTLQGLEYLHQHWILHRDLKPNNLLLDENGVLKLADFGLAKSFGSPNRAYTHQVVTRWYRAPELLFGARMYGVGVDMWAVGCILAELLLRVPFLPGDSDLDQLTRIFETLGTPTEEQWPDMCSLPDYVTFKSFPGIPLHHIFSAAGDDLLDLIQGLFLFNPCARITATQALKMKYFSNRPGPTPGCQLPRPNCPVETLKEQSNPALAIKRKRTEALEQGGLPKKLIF
UniProt P50750, whole entry: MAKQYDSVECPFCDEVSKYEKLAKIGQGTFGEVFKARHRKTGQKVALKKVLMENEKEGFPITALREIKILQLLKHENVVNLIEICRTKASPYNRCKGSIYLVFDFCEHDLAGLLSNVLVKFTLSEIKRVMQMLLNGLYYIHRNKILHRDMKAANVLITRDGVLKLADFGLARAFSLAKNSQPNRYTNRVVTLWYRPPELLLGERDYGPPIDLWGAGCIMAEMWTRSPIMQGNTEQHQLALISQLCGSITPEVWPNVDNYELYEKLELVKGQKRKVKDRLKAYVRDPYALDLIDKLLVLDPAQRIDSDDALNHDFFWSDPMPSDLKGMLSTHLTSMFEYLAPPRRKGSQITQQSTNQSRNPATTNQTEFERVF

Tests used:
Conditions in all cases: K562; 2-18 h
YES1 = YES1 (UniProt P07947); test: number of time points (of 5) at which kinase-Nluc abundance scored as decreased, DMSO-normalised (count); higher = more persistent destabilization
ZAK = ZAK (UniProt Q9NYL2); test: as above
ZAP70 = ZAP70 (UniProt P43403); test: as above
CDK4 = CDK4 (UniProt P11802); test: number of time points (of 4; 2 h point missing) at which kinase-Nluc abundance scored as decreased, DMSO-normalised (count); higher = more persistent destabilization
CDK7 = CDK7 (UniProt P50613); test: as above
CDK9 = CDK9 (UniProt P50750); test: as above

Measured: number of time points

Cc1cc(NC(=O)c2cccc(NC(=O)/C=C/CN(C)C)c2)ccc1Nc1nccc(-c2cccnc2)n1 (10 µM)
0: ZAK | ZAP70 | CDK4 | CDK7 | CDK9
4: YES1

CC(=NNC(=O)c1ccc(C)c(Br)c1)c1ccc(O)cc1O [mTOR inhibitor-1] (2.5 µM)
0: YES1 | ZAK | ZAP70 | CDK4 | CDK7 | CDK9

COCCOc1ccc(-c2cn(-c3ccccc3)c3nc[nH]c(=O)c23)cc1 (10 µM)
0: YES1 | ZAK | ZAP70 | CDK4 | CDK7 | CDK9

CN(CC(=O)N(Cc1ccc(C2CCCCC2)cc1)c1ccc(C(=O)O)cc1)S(=O)(=O)c1c(F)c(F)c(F)c(F)c1F (2.5 µM)
0: YES1 | ZAK | ZAP70 | CDK4 | CDK7 | CDK9

Cc1c(NC(=O)OC[C@@H]2COCCN2)cn2ncnc(Nc3ccc4c(cnn4Cc4cccc(F)c4)c3)c12 (10 µM)
0: YES1 | ZAK | ZAP70 | CDK4 | CDK7 | CDK9

Nc1cc(Nc2ccc(S(N)(=O)=O)cc2)ncn1 (10 µM)
0: YES1 | ZAK | ZAP70 | CDK4 | CDK7 | CDK9

N#Cc1cccc(-c2c[nH]c3ncnc(N4CCOCC4)c23)c1 (10 µM)
0: YES1 | ZAK | ZAP70 | CDK4 | CDK7 | CDK9

CC(=O)c1c(C)c2cnc(Nc3ccc(N4CCN(CCCCNC(=O)COc5cccc6c5C(=O)N(C5CCC(=O)NC5=O)C6=O)CC4)cn3)nc2n(C2CCCC2)c1=O (stereo unspecified) (10 µM)
0: YES1 | ZAK | ZAP70 | CDK4 | CDK7 | CDK9

OC(COc1ccc(C(F)(F)F)cc1)CN(Cc1ccccc1)Cc1ccccc1 (stereo unspecified) (2.5 µM)
0: YES1 | ZAK | ZAP70 | CDK4 | CDK7 | CDK9

C[C@@H](c1ccc2nccn2c1)n1nnc2ncc(-c3cnn(C)c3)nc21 [Savolitinib] (10 µM)
0: YES1 | ZAK | ZAP70 | CDK4 | CDK7 | CDK9

Cc1cc(Nc2cc(Cl)nc(Oc3ccc([N+](=O)[O-])cc3)n2)n[nH]1 [Autophinib] (2.5 µM)
0: YES1 | ZAK | ZAP70 | CDK4 | CDK7 | CDK9

COc1cc([N+](=O)[O-])ccc1S(=O)(=O)N1C[C@@H](CN2CCN(c3ccccn3)CC2)[C@H](c2cccc(F)c2)C1 (relative stereo) (10 µM)
0: YES1 | ZAK | ZAP70 | CDK4 | CDK7 | CDK9

Cc1ccc(S(=O)(=O)/C=C/C#N)cc1 (10 µM)
0: YES1 | ZAK | ZAP70 | CDK4 | CDK7 | CDK9

NC1(Cc2ccc(Cl)cc2)CCN(c2ncnc3[nH]ccc23)CC1 (10 µM)
0: YES1 | ZAK | ZAP70 | CDK4 | CDK7 | CDK9

C=CC(=O)Nc1cccc(C)c1Nc1ncc2cc(-c3c(Cl)c(OC)cc(OC)c3Cl)ccc2n1 (2.5 µM)
0: YES1 | ZAK | ZAP70 | CDK4 | CDK7 | CDK9

c1cc2c(cc1O[C@H]1OC[C@H]3[C@@H]1CO[C@@H]3c1ccc3c(c1)OCO3)OCO2 [Sesamolin] (10 µM)
0: YES1 | ZAK | ZAP70 | CDK4 | CDK7 | CDK9

Cc1noc(C)c1-c1ccc(-c2cc(C(N)=O)c(NC(N)=O)s2)c(O[C@H]2CCNC2)c1 (10 µM)
0: YES1 | ZAK | ZAP70 | CDK4 | CDK7 | CDK9

CCOc1cc(C(=O)N2CCC(N3CCN(C)CC3)CC2)ccc1Nc1ncc2c(n1)N(C1CCCC1)c1ccccc1C(=O)N2C (10 µM)
0: YES1 | ZAK | ZAP70 | CDK4 | CDK7 | CDK9

Nc1nccc(Oc2ccc(NC(=O)c3cn(COP(=O)(O)O)cc(-c4ccc(F)cc4)c3=O)cc2F)c1Cl (10 µM)
0: YES1 | ZAK | ZAP70 | CDK4 | CDK9
3: CDK7

O=C(O)CCc1ccc(O)c(O)c1 [Dihydrocaffeic acid] (10 µM)
0: YES1 | ZAK | ZAP70 | CDK4 | CDK7 | CDK9

Cc1cc(Nc2cc3ncccc3c(N[C@@H]3C[C@H]4CC[C@@H](C3)N4CCC#N)n2)n[nH]1 [Izencitinib] (10 µM)
0: YES1 | ZAK | ZAP70 | CDK4 | CDK7 | CDK9

Cc1ccc(S(=O)(=O)Nc2ccccc2C=Nc2ccccc2NS(=O)(=O)c2ccc(C)cc2)cc1 (10 µM)
0: YES1 | ZAK | ZAP70 | CDK4 | CDK7 | CDK9

CC(C)CC1(O)CCN(C(=O)c2ccc(NS(=O)(=O)c3cccc4nccnc34)cc2)CC1 (10 µM)
0: YES1 | ZAK | ZAP70 | CDK4 | CDK7 | CDK9

CN(C)CCN(Cc1ccc(Cl)cc1)c1ccccn1 [Chloropyramine hydrochloride] (10 µM)
0: YES1 | ZAK | ZAP70 | CDK4 | CDK7 | CDK9

Nc1ncnc2c1ncn2[C@@H]1O[C@H](CO)C[C@H]1O [Cordycepin] (10 µM)
0: YES1 | ZAK | ZAP70 | CDK4 | CDK7 | CDK9

C[C@@H]1C(=O)O[C@H](C)[C@H]1C[C@@H](O)[C@](C)(O)[C@H]1CC[C@@]2(O)C3=CC(=O)[C@@H]4C[C@@H](O)[C@@H](O)C[C@]4(C)[C@H]3CC[C@]12C [Cyasterone] (10 µM)
0: YES1 | ZAK | ZAP70 | CDK4 | CDK7 | CDK9

COc1ccc(Cl)cc1NC(=O)Nc1cc(C)nc2ccccc12 (2.5 µM)
0: YES1 | ZAK | ZAP70 | CDK4 | CDK7 | CDK9

COc1cc(C(N)=O)nc(-c2cccc(C#C[C@]3(O)CCN(C)C3=O)c2)c1 (10 µM)
0: YES1 | ZAK | ZAP70 | CDK4 | CDK7 | CDK9

N#CC(c1ccnc(NCCc2cccnc2)n1)c1nc2ccccc2s1 (stereo unspecified) (10 µM)
0: YES1 | ZAK | ZAP70 | CDK4 | CDK7 | CDK9

COc1ccc(C(=O)Nc2sc3c(c2C(N)=O)CCCC3)cc1OC (10 µM)
0: YES1 | ZAK | ZAP70 | CDK4 | CDK7 | CDK9

CC(C)(C)c1ccc(S(=O)(=O)Nc2ccc(-n3ccnc3)cc2)cc1 (10 µM)
0: YES1 | ZAK | ZAP70 | CDK4 | CDK7 | CDK9

Cn1c(=O)c(F)c(Nc2ccc(I)cc2F)c2c(=O)n(C[C@@H](O)CO)cnc21 (10 µM)
0: YES1 | ZAK | ZAP70 | CDK4 | CDK9
1: CDK7

CS(=O)(=O)c1ccc(-c2cnc(N)c(C(=O)Nc3ccccc3)n2)cc1 (10 µM)
0: YES1 | ZAK | ZAP70 | CDK4 | CDK7 | CDK9

COc1ccc2[nH]cc(/C=C3\C(=O)Nc4ccc(NC(=O)CCN5CCCCC5)cc43)c2c1 (2.5 µM)
0: YES1 | ZAK | ZAP70 | CDK4 | CDK7 | CDK9

O=C(Nc1nc2ccccc2[nH]1)c1cccc(-n2cccc2)c1 (10 µM)
0: YES1 | ZAK | ZAP70 | CDK4 | CDK7 | CDK9

CC(C)(NS(=O)(=O)c1ccc2c(Cl)cnc(N=C(N)N)c2c1)C(=O)O (10 µM)
0: YES1 | ZAK | ZAP70 | CDK4 | CDK7 | CDK9

NCCN1CCN(C/C=C/C(=O)N2CCC[C@@H](n3nc(-c4ccc(Oc5ccccc5)cc4)c4c(N)ncnc43)C2)CC1 [Ibrutinib-MPEA] (10 µM)
0: YES1 | ZAK | ZAP70 | CDK4 | CDK7 | CDK9

COc1ccc(-c2ccc3c(N4CCOC[C@@H]4C)nc(N4CCOC[C@@H]4C)nc3n2)cc1CO (2.5 µM)
0: ZAP70 | CDK4
3: CDK7 | CDK9
2: YES1 | ZAK

C#CCN(C)C(=O)CCNc1nc(N2CCN(C(=O)C=C)CC2)c2cc(Cl)c(-c3c(O)cccc3F)c(F)c2n1 [ARS-1323-alkyne] (2.5 µM)
0: YES1 | ZAK | ZAP70 | CDK4 | CDK7 | CDK9

COc1cc(N2CCC(N3CCN(C)CC3)CC2)ccc1Nc1ncc(Cl)c(Nc2ccccc2P(C)(C)=O)n1 [Brigatinib] (2 µM)
0: YES1 | ZAK | ZAP70 | CDK4 | CDK7 | CDK9

O=C1NC(=O)/C(=C/c2ccc3c(c2)OC(F)(F)O3)S1 (10 µM)
0: YES1 | ZAK | ZAP70 | CDK4 | CDK7 | CDK9

N#Cc1ccc2ncnc(NC3CCC(N4CCOCC4)CC3)c2c1 (stereo unspecified) (10 µM)
0: YES1 | ZAK | ZAP70 | CDK4 | CDK7 | CDK9

Two neighbouring entries from above, for reference:
COc1cc(N2CCC(N3CCN(C)CC3)CC2)ccc1Nc1ncc(Cl)c(Nc2ccccc2P(C)(C)=O)n1 [Brigatinib] (2 µM)
0: YES1 | ZAK | ZAP70 | CDK4 | CDK7 | CDK9

O=C1NC(=O)/C(=C/c2ccc3c(c2)OC(F)(F)O3)S1 (10 µM)
0: YES1 | ZAK | ZAP70 | CDK4 | CDK7 | CDK9

Following part

COC1(C(=O)N2Cc3nc(Cl)nc(N[C@H](C)c4cc(N)cc(C(F)(F)F)c4)c3C2)CCOCC1 (10 µM)
0: YES1 | ZAK | ZAP70 | CDK4 | CDK7 | CDK9

O=C(NCCO)c1ccc2c(c1)nc(Nc1cccc(Cl)c1)c1ccncc12 [CK2 inhibitor 2] (10 µM)
0: YES1 | ZAK | ZAP70 | CDK4 | CDK7 | CDK9

CC(=O)N1CCN(c2cc(-c3cc(C(F)(F)F)c4c(N)ncnn34)ccc2C#N)C(=O)C1(C)C (10 µM)
0: YES1 | ZAK | ZAP70 | CDK4 | CDK7 | CDK9

C=C(C)C(=O)Nc1cccc(-c2ncnc3[nH]cc(C(=O)OCC)c23)c1 (10 µM)
0: YES1 | ZAK | ZAP70 | CDK4 | CDK7 | CDK9
